In PubChem BioAssay AID2685 (National Center for Advancing Translational Sciences (NCATS), 2010):
Out of some 320,000 compounds screened, about 2,100 (0.66%) were called active. The inconclusive results got no clear call from the source; some entries with a clear call stand among them for comparison. Calls come from the whole dose curve; as a rule, active = well fitted inhibition curve with a large enough effect in the signal ratio, with a control signal flat (not every such curve was filed as active); inconclusive = small, poorly fitted or top-dose-only effect, or effect the other way, or a change in a side signal; inactive = flat fitted curve, though single readings scatter; the % refers to the signal ratio. A potency beside an inconclusive call is a rough fit, not a confirmed value.

test: qHTS Assay for Lipid Storage Modulators in Drosophila S3 Cells; settings: BODIPY lipid droplet fluorescence, 18-24 h, cells fed with added oleic acid; lipid storage change, negative = inhibition: at 46.1 µM (top of the series) unless noted
Summary of the method: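 Drosophila S3 cells got compounds at several concentrations plus oleic acid (400 uM solution). Laser-scanning cytometry with 488 nm excitation read lipid droplets at 500-530 nm and cells at 575-640 nm. Percent activity was relative to 20 uM Triacsin C.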
% is set by controls: 0 for no effect and ±100 for the full control effect; potency is the fitted concentration of half-maximal effect.

Lipid storage change, negative = inhibition, inactive:
CCOC(=O)CC(=O)CSc1nc2c(sc(=S)n2-c2ccccc2)c(=O)[nH]1 -9.14%

Lipid storage change, negative = inhibition, inconclusive:
CCOc1ccc(NCCC(=O)c2ccc3c(c2)OCO3)cc1 98.3%
COCCCNC(=O)CCCn1c(=O)[nH]c2ccccc2c1=O 1.66%
C=CCn1c(N)c(C(=O)OCC(C)C)c2nc3ccccc3nc21 20.5%
CCCN(Cc1nnc(-c2cccs2)o1)C(=O)CN1C(=O)NC2(CCCCC2)C1=O
COc1ccc(-n2ncc3c(NC(C)C)ncnc32)cc1 12.5%
CCCS(=O)(=O)c1nc(S(=O)(=O)c2ccc(C)cc2)c(NCCN2CCOCC2)s1 -12.1%
CCOC(=O)c1cc(-c2ccc(OC)cc2OC)nn1-c1ccc(C(=O)O)cc1 -14.7% [at 9.22 µM]
O=[N+]([O-])c1ccc(NC2CCCC2)cc1 -11.1%
Cn1c[n+](C)cc1/C=N/O 15.7%
COc1ccc(CCN2C(=NC(=O)CCC(=O)O)SC3CS(=O)(=O)CC32)cc1 (stereo not given) 23.2%
COc1cccc(-c2cc3c(-n4cccc4)ncnc3o2)c1 -2.71%
COc1ccc(OCCC(=O)OCc2c(C)noc2C)cc1 -4.51%
CC(C)(C)c1ccc(OCCC(=O)OCC(=O)NC(=O)NC2CCCC2)cc1 5.09%
CN(C(=O)Nc1ccc(Cl)cc1Cl)[C@H]1c2cc(Br)ccc2OC[C@H]1CO 50%
Cc1cccc(OC(C)C(=O)N2CCc3ccccc3C2)c1 (stereo not given) -39.9%
O=C1NC(Cc2ccccc2)c2nc3ccc(Cl)cc3c(=O)n2-c2ccc(Cl)cc21 (stereo not given) -58%
CCOP(=O)(OCC)C(NC(=O)Nc1ccc(Cl)c(Cl)c1)c1ccccc1 (stereo not given) -64.7%
Cc1cccc(Oc2coc3cc(O)ccc3c2=O)c1 39.5%
CC(=O)c1ccccc1NC(=O)c1cc(S(=O)(=O)N2CCOCC2)ccc1N1CCCC1 28.3%
CCC1CN(C(=O)NCc2ccc(F)cc2)c2cc(C)ccc2O1 (stereo not given) -8.54%
O=C(NCCC1CCCCN1S(=O)(=O)c1ccccc1)C(=O)NC1CC1 (stereo not given) -20.6%
CCOc1ccc(OCCCC(=O)N(C)CC(=O)Nc2ccc(N3CCOCC3)cc2)cc1
COCCn1c(=NC(=O)c2ccc(S(=O)(=O)N3CCCc4ccccc43)cc2)sc2cc(S(C)(=O)=O)ccc21 10.7%
Cc1cc(C(=O)Nc2ccc(Br)cc2)c2ccccc2n1 14%
CCC(=NCCc1c(C)[nH]c2ccc(OC(F)(F)F)cc12)C1=C(O)CC(c2ccccc2)CC1=O (stereo not given) -11.8%
CC(=O)N1Cc2[nH]c3ccccc3c2CC1C(=O)O (stereo not given) 16.8%
O=C(Nc1ccc([N+](=O)[O-])cn1)C1CC1 26.9%
COc1ccc(OC)c(NC(=O)CSc2nccn2Cc2ccco2)c1 -71.2%
CN=C1c2c(-c3ccccc3)c3cc(OC)ccc3n2CCN1C 2.37%
COc1ccc(C(=O)NCCc2ccccc2F)cc1OC1CCN(C(C)=O)CC1 4.34%
O=C(N1CCOCC1)n1nnc2ccccc21 -0.699%
COC(=O)Cn1c(CCS(=O)(=O)c2ccc(C)cc2)nc2ccccc21 34.3%
CCC(C)NC(=O)CSc1ncccc1C(=O)O (stereo not given) -35.2%
C/C(=N\NC(=O)C1CC1(C)c1ccccc1)c1ccco1 (stereo not given) 22.9%
CC(=O)c1c(C(C)=O)c(C)n(NC(=O)c2ccccc2O)c1C 1.14%
O=C(O)Cc1nc(-c2cccnc2)sc1-c1ccc(Br)cc1 12.8%
C/C(=N/NC(=O)c1ccccc1)c1ccc(NC(=O)C(F)(F)F)cc1 0.2%
COc1ccccc1-c1noc(Cn2cc(S(=O)(=O)N3CCCC3)ccc2=O)n1 -57%
Cc1ccc(CNC(=O)C2CCC(=O)N(CCc3cccc(F)c3)C2)s1 (stereo not given) 120%
Cc1ccc(NC(=S)NNC(=O)c2nn(C)cc2Cl)cc1 -13.6%
Cc1ccccc1CN1CCC(Oc2ccc(C(=O)NCc3ccccn3)cc2)CC1 61.7%
CCCCn1c(N)c(N(CC(C)C)C(=O)CN2C(=O)NC3(CC(C)CC(C)(C)C3)C2=O)c(=O)[nH]c1=O (stereo not given) -39.9%
CC(=O)c1ccc(NC(=O)CNCC(c2ccccc2)N(C)C)cc1 (stereo not given) -39.2%
COc1ccc(OCCSc2nc(C)nc3ccccc23)cc1 6.98%
CCOC(=O)N1CCN(Cc2nc(N)nc(Nc3ccc(Cl)cc3)n2)CC1 18.3%
Cc1noc(C)c1S(=O)(=O)N1CCC(C(=O)N2CCN(C(=O)c3ccco3)CC2)CC1 16.1%
Cc1ccc(-c2cc(C(=O)N/N=C/c3cccnc3)n[nH]2)o1 18.5%
N#Cc1ccc(NC(=O)COC(=O)c2ccc(F)c(S(=O)(=O)N3CCOCC3)c2)cc1 0.498%
CN1CCN(c2nc(NCCOC34CC5CC(CC(C5)C3)C4)nc(OCC(F)(F)F)n2)CC1 -35.9%
COc1ccc(OCC(=O)Nc2cc(S(=O)(=O)N3CCCC3)ccc2OCC(F)(F)F)cc1
Cc1cc(NC(=O)C2CCCN(S(=O)(=O)c3c(C)noc3C)C2)n[nH]1 (stereo not given) 38.3%
CC1CCN(C(=O)C(C)c2ccc([N+](=O)[O-])cc2)CC1 (stereo not given) -43.8%
COc1ccc(OCc2nnc(SCC(=O)Nc3nnc(C4CC4)s3)n2C)cc1 12.8%
O=C(Oc1ccc(F)cc1C(=O)/C=C/c1cccs1)c1cccc([N+](=O)[O-])c1 -36.7% [at 0.0737 µM]
Cc1ccc(NC(=O)NCCN2CCCCC2)cc1C 4.18%
CO/N=C/C(C#N)=C/c1ccc(OC)c(OC)c1 8.9%
CSCCC(NC(=O)c1ccccc1)C(=O)NNC(=O)c1csc(N2CCOCC2)n1 (stereo not given) 19.2%
CCc1ccc(-c2nc(CS(=O)CC(=O)O)c(C)o2)cc1 (stereo not given) 2.6%

Six entries picked at random from the list so far, as already listed:
Lipid storage change, negative = inhibition, inconclusive:
CC(=O)c1c(C(C)=O)c(C)n(NC(=O)c2ccccc2O)c1C 1.14%
O=C(N1CCOCC1)n1nnc2ccccc21 -0.699%
CCC(=NCCc1c(C)[nH]c2ccc(OC(F)(F)F)cc12)C1=C(O)CC(c2ccccc2)CC1=O (stereo not given) -11.8%
COc1ccccc1-c1noc(Cn2cc(S(=O)(=O)N3CCCC3)ccc2=O)n1 -57%
CN=C1c2c(-c3ccccc3)c3cc(OC)ccc3n2CCN1C 2.37%
COc1ccc(OCCC(=O)OCc2c(C)noc2C)cc1 -4.51%

Following part.

Potency, inconclusive:
CCOc1ccccc1OCCCC(=O)NNC(=O)c1nn(C)c(=O)c2ccccc12 2.91 µM [activator, single point]
Cn1c(SCC(=O)Nc2ccc3c(c2)OCCO3)nnc1-c1ccccn1 1.46 µM [activator, partial curve]
O=C1COc2ccc(S(=O)(=O)NCc3ccccc3)cc2N1 0.116 µM [falling, full curve, poor fit]
O=C(NCc1ccc(Cl)cc1)c1cc(=O)nc2sc(-c3ccccc3)nn12 0.103 µM [activator, full curve, poor fit]
Oc1ccccc1CN1CCN(C(c2ccccc2)c2ccccc2)CC1 9.2 µM [activator, partial curve]
CC(=O)COc1ccc2c3c(c(=O)oc2c1C)CCCCC3 29.1 µM [activator, single point]
Cc1ccc(C)c(N2CCN(C(c3ccncc3)c3nnnn3Cc3ccccc3)CC2)c1 (stereo not given) 23.1 µM [falling, single point]
O=C(O)c1ccccc1NS(=O)(=O)c1cccc(C(F)(F)F)c1 0.58 µM [falling, single point]
C#CCNc1c2c(nc3ncnn13)CC(C)CC2 (stereo not given) 29.1 µM [activator, partial curve, poor fit]
Cc1[nH]c(=O)[nH]c(=O)c1N1CCOCC1 0.0326 µM [falling, full curve]
Clc1ccc(C2Nc3cccc4cccc(c34)N2)cc1Cl 6.51 µM [activator, single point]
O=C1ON=C(c2ccc(Cl)cc2)/C1=C/c1ccc(O)cc1 29.1 µM [falling, single point]
CCN(CC)S(=O)(=O)c1ccc(N2CCCC2)c(NC(=O)Cc2cc(OC)c(OC)c(OC)c2)c1 0.116 µM [activator, partial curve, poor fit]
O=C(CCC(=O)c1ccc(F)cc1)NCc1ccccc1C(F)(F)F 16.4 µM [activator, single point]
O=C(NC1CCSc2ccccc21)c1cccc(OC(F)F)c1 (stereo not given) 25.9 µM [activator, single point]
COc1ccc(/C=C2/SC(c3ccc(C)cc3)=NC2=O)cc1OC 13 µM [activator, single point]
COc1ccc(-c2csc(/N=C/N(C)C)n2)cc1OC 0.116 µM [rising, single point]

Potency, active:
COC(=O)c1c(NC(=O)CCl)sc(C(=O)N2CCOCC2)c1C 0.651 µM
COc1ccccc1C(=O)N/N=C(\C)CC(=O)Nc1ccc2c(c1)OCCO2 16.4 µM
Cc1ccc(S(=O)(=O)NCCCC(=O)N2CCC(C)CC2)cc1 16.4 µM
CCCCCOc1ccc(/C=C/C(=O)NCCc2nc3ccccc3[nH]2)cc1OC 13 µM
